Drawing on patent US20260234247A1, this text covers binding for 17 molecules.

The chains behind the UniProt entries cited, without tags or fusion partners. Residues count along the entry.
UniProt Q8N423, residues 22-597: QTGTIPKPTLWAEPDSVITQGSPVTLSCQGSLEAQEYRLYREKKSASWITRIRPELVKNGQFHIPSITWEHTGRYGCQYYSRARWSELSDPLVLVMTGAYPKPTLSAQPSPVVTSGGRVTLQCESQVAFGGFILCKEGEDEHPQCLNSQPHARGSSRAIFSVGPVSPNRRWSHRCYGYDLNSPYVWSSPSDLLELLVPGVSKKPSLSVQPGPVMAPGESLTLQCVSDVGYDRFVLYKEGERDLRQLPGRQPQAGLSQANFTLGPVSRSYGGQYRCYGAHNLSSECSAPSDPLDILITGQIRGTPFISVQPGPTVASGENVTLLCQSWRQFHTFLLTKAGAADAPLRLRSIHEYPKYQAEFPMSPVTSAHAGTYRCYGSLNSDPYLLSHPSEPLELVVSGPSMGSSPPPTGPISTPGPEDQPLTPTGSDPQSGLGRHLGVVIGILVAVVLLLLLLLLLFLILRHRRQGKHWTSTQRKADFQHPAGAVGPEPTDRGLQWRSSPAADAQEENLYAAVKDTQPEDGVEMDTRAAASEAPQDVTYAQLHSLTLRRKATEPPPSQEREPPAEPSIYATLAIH
UniProt Q8NHL6, residues 24-458: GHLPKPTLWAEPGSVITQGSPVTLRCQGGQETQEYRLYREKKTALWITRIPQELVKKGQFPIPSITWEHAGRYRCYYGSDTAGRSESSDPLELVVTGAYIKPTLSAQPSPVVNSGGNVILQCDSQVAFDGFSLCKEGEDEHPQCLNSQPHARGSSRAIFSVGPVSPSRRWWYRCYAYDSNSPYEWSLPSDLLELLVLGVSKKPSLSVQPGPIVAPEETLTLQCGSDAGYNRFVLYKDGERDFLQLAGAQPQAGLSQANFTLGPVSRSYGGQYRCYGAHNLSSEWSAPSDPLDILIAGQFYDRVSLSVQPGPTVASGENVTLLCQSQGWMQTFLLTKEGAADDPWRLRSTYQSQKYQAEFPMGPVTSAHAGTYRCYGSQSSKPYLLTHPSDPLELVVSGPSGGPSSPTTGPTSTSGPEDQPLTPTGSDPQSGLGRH
UniProt Q8N149, residues 24-449: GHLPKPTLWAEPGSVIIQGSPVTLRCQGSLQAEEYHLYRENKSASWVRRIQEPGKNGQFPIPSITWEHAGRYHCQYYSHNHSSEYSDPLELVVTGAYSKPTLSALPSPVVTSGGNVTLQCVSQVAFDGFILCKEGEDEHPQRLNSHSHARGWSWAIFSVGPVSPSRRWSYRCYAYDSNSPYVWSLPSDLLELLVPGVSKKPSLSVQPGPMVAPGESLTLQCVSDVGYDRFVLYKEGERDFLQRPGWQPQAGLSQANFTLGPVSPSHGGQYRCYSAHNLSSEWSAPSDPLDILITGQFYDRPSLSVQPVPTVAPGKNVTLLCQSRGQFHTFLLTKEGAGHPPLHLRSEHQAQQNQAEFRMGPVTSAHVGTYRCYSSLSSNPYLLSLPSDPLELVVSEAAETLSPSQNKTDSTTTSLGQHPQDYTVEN
UniProt Q8N6C8, residues 24-439: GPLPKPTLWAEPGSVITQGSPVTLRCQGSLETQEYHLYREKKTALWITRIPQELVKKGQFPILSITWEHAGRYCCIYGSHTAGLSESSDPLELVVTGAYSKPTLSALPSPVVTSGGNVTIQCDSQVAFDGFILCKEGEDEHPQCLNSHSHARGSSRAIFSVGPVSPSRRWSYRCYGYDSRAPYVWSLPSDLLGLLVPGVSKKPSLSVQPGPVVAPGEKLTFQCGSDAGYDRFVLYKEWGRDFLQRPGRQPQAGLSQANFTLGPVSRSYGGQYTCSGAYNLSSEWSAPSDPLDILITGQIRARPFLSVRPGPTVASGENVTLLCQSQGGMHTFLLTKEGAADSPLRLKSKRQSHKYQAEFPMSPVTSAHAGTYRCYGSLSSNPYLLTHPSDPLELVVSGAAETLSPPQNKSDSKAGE
UniProt P59901, residues 24-446: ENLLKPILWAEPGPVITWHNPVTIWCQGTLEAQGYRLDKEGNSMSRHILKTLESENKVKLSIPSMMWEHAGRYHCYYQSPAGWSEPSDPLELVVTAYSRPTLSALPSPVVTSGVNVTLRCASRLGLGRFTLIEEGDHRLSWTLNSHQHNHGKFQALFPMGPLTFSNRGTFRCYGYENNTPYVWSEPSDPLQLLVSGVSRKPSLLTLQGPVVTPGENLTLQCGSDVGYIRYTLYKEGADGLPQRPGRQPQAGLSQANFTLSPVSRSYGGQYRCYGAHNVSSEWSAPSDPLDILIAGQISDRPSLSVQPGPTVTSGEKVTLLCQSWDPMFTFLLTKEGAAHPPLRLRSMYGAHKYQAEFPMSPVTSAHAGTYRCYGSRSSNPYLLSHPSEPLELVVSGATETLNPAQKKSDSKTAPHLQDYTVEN
UniProt Q6PI73, residues 24-447: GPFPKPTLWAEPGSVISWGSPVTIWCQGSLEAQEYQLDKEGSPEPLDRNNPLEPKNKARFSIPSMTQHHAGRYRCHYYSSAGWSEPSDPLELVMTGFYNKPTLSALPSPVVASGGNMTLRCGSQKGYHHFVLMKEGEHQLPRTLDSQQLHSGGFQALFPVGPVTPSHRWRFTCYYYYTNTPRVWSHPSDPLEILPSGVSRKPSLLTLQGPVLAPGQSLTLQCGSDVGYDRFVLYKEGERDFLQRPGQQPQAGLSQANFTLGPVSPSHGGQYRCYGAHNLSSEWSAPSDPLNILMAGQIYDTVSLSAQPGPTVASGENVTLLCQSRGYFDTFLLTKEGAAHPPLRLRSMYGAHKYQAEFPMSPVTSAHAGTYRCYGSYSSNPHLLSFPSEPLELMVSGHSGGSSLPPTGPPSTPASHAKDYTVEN

Numbering of substitutions follows the chain as printed. No constants are given. Whether binding was seen depends on the method and setting. Some results given as binding are weak or reduced against the parent protein; the word gives no strength.

Experiment [1] has as its target human LILRB2 on CHOK1-human LILRB2 cell line (human) (UniProt Q8N423). As to the kind of experiment: flow cytometry on CHOK1-human LILRB2 cells (FIGS. 4F-4G). A general note: Flow cytometry measures light scatter and fluorescence of single cells or particles in a stream.
The target is the same in experiment [2]. Kind of experiment: flow cytometry (FIG. 5C).
The target in experiment [3] is human LILRB1 protein (wild type) (human) (UniProt Q8NHL6). Kind of experiment: Octet, dissociation rate ranking.
The target in experiment [4] is human LILRB2 on CHOK1-human LILRB2 cell line (human) (UniProt Q8N423). As to the kind of experiment: flow cytometry on CHOK1-human LILRB2 cell line (FIGS. 4F-4G).
For experiment [5] the target is unchanged. As to the kind of experiment: flow cytometry on human LILRB2 cells (FIG. 5C).
The target of a further experiment is human LILRA2 (human) (UniProt Q8N149). Kind of experiment: ELISA, OD450, antibody at 200 nM; + = 2-fold over ISO.
A further experiment deals with human LILRA3 (human) (UniProt Q8N6C8). The experiment is described as above.
A further experiment concerns the target human LILRA4 (human) (UniProt P59901). The experiment is described as above.
Experiment [6] has as its target human LILRB1 protein (wild type) (human) (UniProt Q8NHL6). As to the kind of experiment: ELISA (FIG. 12A). On the technique in general: ELISA stands for enzyme-linked immunosorbent assay.
In another experiment the target is human LILRA6 (human) (UniProt Q6PI73). As to the kind of experiment: ELISA, OD450, antibody at 200 nM; + = 2-fold over ISO.

B1: LK-RB2-2 (antibody, human IgG4 S228P, kappa, V domains shown)
VH: DVKLEESGEGLVKPGGSLKLSCAASGFTFSSYAMSWVRQTPEKRLEWVAYISSGGDYFHYADTVKGRFTISRDNARNTLYLQMSSLKSEDTAMYYCTREGAHYDSSYLAWFAHWGQGTLVTVSA
VL: DIQMTQSPASLSVSVGETVTITCRASENIYSNLAWYQQRQGKSPQLLVYAATNLADGVPSRFSGSGSGTQYSLKINSLQSEDFGSYYCQQFWDNPLTFGAGTKLELKR
For B1, the binding result in experiment [1] is reported as “binds”.

B2: hz73D1.v1 (antibody, human IgG4 S228P, kappa, V domains shown)
VH: QVQLVQSGAEVKKPGASVKVSCKASGYTFTDYYINWVRQAPGQGLEWMGNVNPNDGGTTYNQKFKGRVTMTTDTSTSTAYMELRSLRSDDTAVYYCARREIYFYGTIYYYAMDYWGQGTLVTVSS
VL: DIQLTQSPSFLSASVGDRVTITCRASESVDYYGNSFMYWYQQKPGKAPKLLIYFASNLESGVPSRFSGSGSGTEFTLTISSLQPEDFATYYCQQNNEDPWTFGGGTKVEIKR
Turning to B2, the binding result in experiment [2] is “binds”.

B3: J19.h1 (antibody, human IgG4 S228P, kappa, V domains shown)
VH: QITLKESGPTLVKPTQTLTLTCTFSGFSLNTYAMGVSWIRQPPGKALEWLASIWWNGNKYNNPSLKSRLTVTKDTSKNQVVLTMTNMDPVDTATYYCAHSRIIRFTDYVMDAWGQGTLVTVSS
VL: DIQMTQSPSSLSTSVGDRVTITCRASEDIYNDLAWYQQKPGKAPKLLIYNANSLHTGVASRFSGSGSGTDFTFTISSLQPEDVATYFCQQYYDYPLTFGQGTKLEIKR
B3: the binding entry in experiment [2] is reported as “binds”.

B4: LK-RB1-9 (antibody, human IgG4 S228P, kappa, V domains shown)
VH: QIQLVQSGPELKKPGETVKISCTASGYTFTTYGMSWVKQAPGKGLKWMGWINTYSGVPTYADDFKGRFAFSLETSASTAYLEINNVKNEDTATYFCARRRRTYHGYLCFDYWGQGTTLTVSS
VL: DIQMTQSPVSLSASVGETVTITCETSENIYGALNWYQRKQGKSPQLLIYGATNLADGMSSRFSGSGSGRQYSLEISSLHPDDVASYYCQNVLNTPWTFGGGTKLEIKR
Consider B4, for which, in experiment [3], the binding entry was “binds”.

B5: LK-RB2-32 (antibody, human IgG4 S228P, kappa, V domains shown)
VH: DVQLQESGPGLVKPSQSLSLTCSVTGYSITSGYYWNWIRQFPGNKLEWMGYISFDGSNHYNPSLRNRISITRDTFKNQFFLKLNSVTTEDTATFYCTRRDYNWFAYWGQGTLVTVSA
VL: DIVLTQSPVTLSVTPGDSVSLSCRASQNINKNLHWYQQRSHESPRLLIKYVSQSISGIPSRFSGSGSGTDFTLSINSVETEDFGMYFCQQSNSWPLTFGAGTKLELRR
For B5, in [3], the binding entry is listed as “binds”.

B6: LK-RB2-24.h1 (antibody, human IgG4, kappa, V domains shown)
VH: QVQLVQSGSELKKPGASVKVSCKASGYTFTTYGMSWVKQAPGQGLKWMGWLNIYSGVPAYADDFKGRFVFSLDTSASTAYLQISSLKAEDTAVYFCARRENYDGYGMDYWGQGTLVTVSS
VL: EIVLTQSPATLSLSPGERATLSCRASQSISDYLHWYQQKPGQAPRLLIKYASQSISGIPARFSGSGSGTDFTLTISSLEPEDFAVYYCQNGHSFPYTFGGGTKLEIKR
On to B6, for which the binding entry in experiment [1] and in [4] was “binds” each time.

B7: LK-RB2-24.h3 (antibody, human IgG4, kappa, V domains shown)
VH: B6 VH
VL: B6 VL with A60S, F83V
Consider B7, for which the binding entry in [1] and in experiment [4] was “binds” in each case.

B8: LK-RB2-24.h2 (antibody, human IgG4, kappa, V domains shown)
VH: B6 VH
VL: B6 VL with A60S
B8: the binding entry in experiment [1] and in experiment [4] was “binds” each time.

B9: LK-RB2-2.h2 (antibody, human IgG4, kappa, V domains shown)
VH: EVQLVESGGGLVKPGGSLRLSCAASGFTFSSYAMSWVRQAPGKGLEWVSYISSGGDYFHYADTVKGRFTISRDNAKNSLYLQMNSLRAEDTAVYYCAREGAHYDSSYLAWFAHWGQGTLVTVSS
VL: DIQMTQSPSSVSASVGDRVTITCRASENIYSNLAWYQQKPGKAPKLLVYAATNLAEGVPSRFSGSGSGTDYTLTISSLQPEDFATYYCQQFWDNPLTFGQGTKLEIKR
Turning to B9, the binding result in experiment [1] and in [4] was “binds” in each case.

B10: LK-RB2-2.h3 (antibody, human IgG4, kappa, V domains shown)
VH: B9 VH with S49A, A97T
VL: B9 VL with V48I
Consider B10, for which the binding entry in experiment [1] and in experiment [4] was “binds” throughout.

B11: LK-RB2-2.h1 (antibody, human IgG4, kappa, V domains shown)
VH: B9 VH
VL: B9 VL with V48I
As for B11, the binding entry in [5], in experiment [1], in [2] and in experiment [4] was “binds” throughout.

B12: LK-RB2-24 (antibody, human IgG4 S228P, kappa, V domains shown)
VH: QIQLVQSGPEVKKPGETVKISCKASGYTFTTYGMSWVKQAPGKGLKWMGWLNIYSGVPAYADDFKGRFAFSLESSASTAYLQINNLKNEDTATYFCARRENYDGYGMDYWGQGTSVTVSS
VL: DIVMTQSPATLSVTPGDRVSLSCRASQSISDYLHWYQQKSHESPRLLIKYASQSISGIPSRFSGSGSGSDFTLSINSVEPEDVGVYYCQNGHSFPYTFGGGTKLEIKR
With B12, the binding result in experiment [3] and in experiment [1] was “binds” in each case.

B13: LK-RB1-6 (antibody, human IgG4 S228P, kappa, V domains shown)
VH: QIQLVQSGPELKKPGETVKISCKASGYTFTTYGMSWVKQAPGKDLKWMGWINTFSGVPACADDFQGRFDFSAEPSDSTAHLQINNLKNEDTATYFCARRSYYGSRGWYFDVWGTGTTVTVSS
VL: DIVMTQSHKFMSTSVGDRVSITCTASEDVNTAVAWYQQKPGQSPKLLIYWASTRHTGVPDRFTGSGSGTDYTLTISSVQTEDLALYYCQQHYNTPYTFGGGTKLEIKR
With B13, the binding entry with human LILRA2 (human) and in the experiment with human LILRA3 (human) was “binds” in each case.

B14: LK-RB1-7 (antibody, human IgG4 S228P, kappa, V domains shown)
VH: B13 VH
VL: DVQMIQSPSSLSASLGDIVTMTCQASQDTTINLNWFQQKPGKVPKLLIYGASNLEDGVPSRFSGSSFGTDFTLTISSLEDEDMATYFCLQHTYLPRTFGGGTKLEIRR
With B14, the binding result with human LILRA4 (human), in the experiment with human LILRA2 (human) and in the experiment with human LILRA3 (human) was “binds” in each case.

B15: LK-RB1-9.h1 (antibody, human IgG4, kappa, V domains shown)
VH: QVQLVQSGSELKKPGASVKVSCKASGYTFTTYGMSWVRQAPGQGLEWMGWINTYSGVPTYADDFKGRFVFSLDTSVSTAYLQISSLKAEDTAVYYCARRRRTYHGYLSFDYWGQGTTVTVSS
VL: DIQMTQSPSSLSASVGDRVTITCETSENIYGALNWYQQKPGKAPKLLIYGATNLAEGVPSRFSGSGSGTDFTFTISSLQPEDIATYYCQNVLNTPWTFGGGTKLEIKR
In the case of B15, the binding result in experiment [6] is “binds”.

B16: LK-RB1-16.h3 (antibody, human IgG4, kappa, V domains shown)
VH: QVQLQESGPGLVKPSETLSLTCTVSGFSLISNAISWIRQPPGKGLEWLGVIWGDGNTIYHSALRSRLTISKDTSKNQVFLKLSSVTAADTAVYYCAKANWDGYYFDYWGQGTTVTVSS
VL: DIQMTQSPSTLSASVGDRVTITCHASQSVDFWLNWYQQKPGKAPKLLISKASNLHTGVPSRFSGSGSGTEFTLTISSLQPDDFATYYCQQGQSYPLTFGQGTKLEIKR
B16: the binding result in experiment [6] was “binds”.

B17: LK-RB1-5 (antibody, human IgG4 S228P, kappa, V domains shown)
VH: QVQLQQPGAELVKPGASVKLSCKASGYTFTDFWIHWVKQRPGQGLEWIGMIHPNSGSTNFNEKFRAKATLTVDKSSSTAYMRLSSLTSEDSAVYYCARSGDGYSNPMDYWGQGTSVTVSS
VL: QIVLSQSPAILSASPGEKVTLTCRASSSVSYMHWYQQKPGSSPKPWIYATSNLASGVPVRFSGSGSGTSYSLTISRMQTEDAATYYCQQWRRSPYTFGGGTKLEIKR
Consider B17, for which the binding entry in the experiment with human LILRA6 (human) was “binds”.
